Results are given in words; binding and its absence hold for the method and conditions named. Binding calls can cover weak binding; strength is not graded here. Where a sequence is shown, tags or fusion partners need not be part of it.

These results are taken from publication PMC5618615.

The target in assay [1] is T1, BD-BAK1 (DNA-binding domain fused to the cytoplasmic domain of AtBAK1) (A. thaliana) (UniProt Q94F62).
T1 sequence: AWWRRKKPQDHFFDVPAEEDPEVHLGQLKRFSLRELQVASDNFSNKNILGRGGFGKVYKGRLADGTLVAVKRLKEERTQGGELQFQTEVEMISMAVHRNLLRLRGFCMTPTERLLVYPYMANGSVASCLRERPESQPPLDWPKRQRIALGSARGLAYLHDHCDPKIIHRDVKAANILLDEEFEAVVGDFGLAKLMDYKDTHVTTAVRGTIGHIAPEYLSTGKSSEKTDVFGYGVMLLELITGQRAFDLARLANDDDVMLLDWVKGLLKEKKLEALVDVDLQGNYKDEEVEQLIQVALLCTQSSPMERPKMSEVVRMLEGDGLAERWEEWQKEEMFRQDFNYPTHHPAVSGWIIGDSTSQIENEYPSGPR
Put plainly: two-hybrid; yeast strain AH109; SlBIR3 cytoplasmic domain in pGADT7 (prey), AtBAK1 or SlBAK1 cytoplasmic domain in pGBKT7 (bait); growth on SD/-Leu-Trp-His-Ade and X-alpha-Gal, 30 °C, 4 days.

For assay [2], the target named is MBP-SlBIR3 (MBP-tagged SlBIR3 cytoplasmic domain) (tomato (Solanum lycopersicum)). Put plainly: pull-down; MBP fusion immobilised on amylose resin as bait; 3 ug FLAG fusion protein in 120 uL incubation buffer (1 mM NaCl, 20 mM MgCl2, 0.5% Triton X-100, 0.1 M HEPES pH 7.2), 1 h, 4 °C; 5 washes; anti-FLAG Western blot; both purified. On the technique in general: In western blotting, separated proteins are transferred to a membrane and probed.

As for “AD-SlBIR3 (activation domain fused to the cytoplasmic domain of SlBIR3) (tomato (Solanum lycopersicum)) (domain or fragment)”, the binding entry in assay [1] is “binds”.

B1: FLAG-tagged BAK1 cytoplasmic domain (domain or fragment, UniProt Q94F62 247-615)
chain: T1 sequence
With B1, in assay [2], the binding entry is “binds”.
